Data taken from patent publication US8501992B2, “Hydroxyphenyl sulfonamides as antiapoptotic bcl inhibitors” (Bristol-Myers Squibb Company, priority 2008, dated 2013).
pKi: −log10 of the molar value. Some entries share one result that the patent states for a list of compounds.

target: T1, Bcl-b (Homo sapiens, UniProt Q9HD36); test: Bclb/Bim fluorescence polarization assay (FPA); type: binding; details: BIM BH3 peptide 5 nM, Bcl-b 40 nM, Ki calculated from FPA data
T1 construct: without their C-terminal transmembrane domain; GST; made in house
T1 sequence (Q9HD36 1-182 limits assumed): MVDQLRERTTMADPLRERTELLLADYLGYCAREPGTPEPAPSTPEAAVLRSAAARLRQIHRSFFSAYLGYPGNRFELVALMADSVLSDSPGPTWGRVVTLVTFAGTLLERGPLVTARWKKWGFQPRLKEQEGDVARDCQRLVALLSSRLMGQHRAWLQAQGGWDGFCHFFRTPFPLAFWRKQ

pKi, ≥ 5.00:
O=S(=O)(c1cc(Cl)cc(Cl)c1O)N(Cc1ccc(C(F)(F)F)cc1)Cc1cccc(-c2ccc(Cl)cc2)c1 [Example 259, 3,5-Dichloro-N-((4′-chlorobiphenyl-3-yl)methyl)-2-hydroxy-N-(4-(trifluoromethyl)benzyl)benzene-sulfonamide]
O=S(=O)(c1cc(Cl)cc(Cl)c1O)N(CCc1ccc(F)cc1)Cc1cccc(-c2ccc(Cl)cc2)c1 [Example 260, 3,5-Dichloro-N-((4′-chlorobiphenyl-3-yl)methyl)-N-(4-fluorophenethyl)-2-hydroxybenzenesulfonamide]
O=S(=O)(c1cc(Cl)cc(Cl)c1O)N(Cc1cccc(-c2ccc(Cl)cc2)c1)C1Cc2ccccc2C1 [Example 261, 3,5-Dichloro-N-((4′-chlorobiphenyl-3-yl)methyl)-N-(2,3-dihydro-1H-inden-2-yl)-2-hydroxybenzenesulfonamide]
O=S(=O)(c1cc(Cl)cc(Cl)c1O)N(CCn1ccc2ccccc21)Cc1cccc(-c2ccc(Cl)cc2)c1 [Example 262, N-(2-(1H-Indol-1-yl)ethyl)-3,5-dichloro-N-((4′-chlorobiphenyl-3-yl)methyl)-2-hydroxybenzenesulfonamide]
COc1c(Cl)cc(CN(CCn2ccc3ccccc32)S(=O)(=O)c2cc(Cl)cc(Cl)c2O)cc1-c1ccc(Cl)cc1 [Example 263, N-(2-(1H-Indol-1-yl)ethyl)-3,5-dichloro-N-((4′,5-dichloro-6-methoxybiphenyl-3-yl)methyl)-2-hydroxybenzenesulfonamide]
O=S(=O)(c1cc(Cl)cc(Cl)c1O)N(Cc1ccc(Oc2ccc(F)cc2)cc1)Cc1cccc(-c2ccc(Cl)cc2)c1 [Example 264, 3,5-Dichloro-N-((4′-chlorobiphenyl-3-yl)methyl)N-(4-(4-fluorophenoxy)benzyl)-2-hydroxybenzenesulfonamide]
O=S(=O)(c1cc(Cl)cc(Cl)c1O)N(Cc1ccc(F)cc1)Cc1ccc(F)c(C(F)(F)F)c1 [Example 265, 3,5-Dichloro-N-(4-fluoro-3-(trifluoromethyl)benzyl)-N-(4-fluorobenzyl)-2-hydroxybenzenesulfonamide]
Cc1cccc(CN(Cc2ccc(F)cc2)S(=O)(=O)c2cc(Cl)cc(Cl)c2O)c1 [Example 266, 3,5-Dichloro-N-(4-fluorobenzyl)-2-hydroxy-N-(3-methylbenzyl)benzenesulfonamide]
O=S(=O)(c1cc(Cl)cc(Cl)c1O)N(CCc1ccc(F)cc1)Cc1cccc(CSCCc2ccccc2)c1 [Example 267, 3,5-Dichloro-N-(4-fluorophenethyl)-2-hydroxy-N-(3-(phenethylthiomethyl)benzyl)benzenesulfonamide]
O=S(=O)(c1cc(Cl)cc(Cl)c1O)N(CCc1ccc(F)cc1)Cc1ccc(CSCCc2ccccc2)cc1 [Example 268, 3,5-Dichloro-N-(4-fluorophenethyl)-2-hydroxy-N-(4-(phenethylthiomethyl)benzyl)-benzenesulfonamide]
O=[N+]([O-])c1cc(CN(CCc2ccc(F)cc2)S(=O)(=O)c2cc(Cl)cc(Cl)c2O)ccc1CSCCc1ccccc1 [Example 269, 3,5-Dichloro-N-(4-fluorophenethyl)-2-hydroxy-N-(3-nitro-4-(phenethylthiomethyl)benzyl)-benzenesulfonamide]
O=C(c1cccc(CN(Cc2ccc(F)cc2)S(=O)(=O)c2cc(Cl)cc(Cl)c2O)n1)N(Cc1ccc(F)cc1)Cc1cc(Cl)cc(Cl)c1 [Example 270, 6-((3,5-Dichloro-N-(4-fluorobenzyl)-2-hydroxyphenylsulfonamido)methyl)-N-(3,5-dichlorobenzyl)-N-(4-fluorobenzyl)picolinamide]
O=C(NCc1ccc(F)cc1)c1cccc(CN(Cc2ccc(F)cc2)S(=O)(=O)c2cc(Cl)cc(Cl)c2O)n1 [Example 271, 6-((3,5-Dichloro-N-(4-fluorobenzyl)-2-hydroxyphenylsulfonamido)methyl)-N-(4-fluorobenzyl)picolinamide]
O=S(=O)(c1cc(Cl)cc(Cl)c1O)N(Cc1ccc(F)cc1)Cc1cccc(Cc2ccc(Cl)cc2)n1 [Example 272, 3,5-Dichloro-N-((6-(4-chlorobenzyl)pyridin-2-yl)methyl)-N-(4-fluorobenzyl)-2-hydroxybenzenesulfonamide]
O=S(=O)(c1cc(Cl)cc(Cl)c1O)N(Cc1ccc(F)cc1)Cc1cccc(Oc2ccc(Cl)cc2)n1 [Example 273, 3,5-Dichloro-N-((6-(4-chlorophenoxy)pyridin-2-yl)methyl)-N-(4-fluorobenzyl)-2-hydroxybenzenesulfonamide]
O=S(=O)(c1cc(Cl)cc(Cl)c1O)N(Cc1ccc(Cl)cc1)Cc1cccc(-c2ccc(Cl)cc2)n1 [Example 274, 3,5-Dichloro-N-(4-chlorobenzyl)-N-((6-(4-chlorophenyl)pyridin-2-yl)methyl)-2-hydroxybenzenesulfonamide]
O=S(=O)(c1cc(Cl)cc(Cl)c1O)N(Cc1ccc(F)cc1)Cc1cccc(-c2ccc(Cl)cc2)n1 [Example 275, 3,5-Dichloro-N-((6-(4-chlorophenyl)pyridin-2-yl)methyl)-N-(4-fluorobenzyl)-2-hydroxybenzenesulfonamide]
